Construct, isoform or probe ends are uncertain for at least one entry. The comparison behind a weaker result is the experiment's own reference, which may not be listed here. At least one verdict was read from the data and is not stated in words by the source. Where a protein sequence is shown, tags need not be part of it.

This data set concerns the target T1, BjFixJ (UniProt P23221).
T1 sequence (looked up, limits assumed): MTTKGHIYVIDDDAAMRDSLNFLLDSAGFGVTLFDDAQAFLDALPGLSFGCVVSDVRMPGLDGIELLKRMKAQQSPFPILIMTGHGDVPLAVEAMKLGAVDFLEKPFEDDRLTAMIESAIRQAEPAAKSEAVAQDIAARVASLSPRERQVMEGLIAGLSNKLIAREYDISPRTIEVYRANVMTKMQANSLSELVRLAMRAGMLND
The data set is described as follows: fluorescence anisotropy. Particulars: 1 mM ATP, NmPAL: 12 mM HEPES/HCl pH 7.7, 135 mM KCl, 10 mM NaCl, 1 mM MgCl2, 10% glycerol, 100 ug/mL BSA, 4 nM RNA, temperature not stated, BjFixJ: 10 mM HEPES/HCl pH 7.6, recombinant protein, protein details: His6-SUMO removed by Senp2, label: 5'-TAMRA on strand 1.

Consider “GAGCGATATCTTAAGGGGGGTGCCTTACGTAGAACCC (double strand) [BjFixK2 operator dsDNA]”, for which the binding result was “binds” (YF1 Q123H, higher anisotropy than with YF1, no light response); “binds more weakly” (YF1 Q123L after blue light, decay about half the YF1 amplitude); “binds” (YF1 Q123L in darkness); “binds” (YF1 Q123P, higher anisotropy than with YF1, no light response); “binds more weakly” (YF1 after 30 s blue light (dephosphorylation)); “binds” (YF1 in darkness (phosphorylated BjFixJ)).

The values above are taken from publication PMC9098866, “Signal transduction in light-oxygen-voltage receptors lacking the active-site glutamine” (Nature Communications, 2022).
